# Values joined by “and” are separate entries in the source; they are usually repeats but may differ in a detail not shown here. Equal values may be shown once. The list shows a part of the results. Each value is one well over the wells without odorant, computed here; the data are noisy.
# Assays:
# Test in all cases: odorant receptor activation (CRE luciferase / Renilla) (fold of no-odor wells); higher = more activation
# Conditions in all cases: 100 µM
# OR10C1 clone 1065 = system: OR10C1 clone 1065
# OR10G3 S73G clone 1272 = system: OR10G3 S73G clone 1272
# [1] = system: OR10G4 A9V/M134V/V195E/R235G/K295Q clone 1119
# OR10G6 clone 1108 = system: OR10G6 clone 1108
# OR10G7 clone 1589 = system: OR10G7 clone 1589
# OR10G8 clone 1396 = system: OR10G8 clone 1396
# [2] = system: OR10G9 A90T/M134V clone 1192
# OR10H1 clone 1291 = system: OR10H1 clone 1291
# OR10H2 L40Q clone 1461 = system: OR10H2 L40Q clone 1461
# OR10H3 clone 1525 = system: OR10H3 clone 1525
# OR10H5 A224D clone 1294 = system: OR10H5 A224D clone 1294
# OR10J1 clone 1711 = system: OR10J1 clone 1711
# OR10J3 clone 1458 = system: OR10J3 clone 1458
# OR10J5 R233W clone 1410 = system: OR10J5 R233W clone 1410
# OR10J5 clone 1037 = system: OR10J5 clone 1037
# OR10K1 clone 1024 = system: OR10K1 clone 1024
# OR10K2 clone 1040 = system: OR10K2 clone 1040
# OR10P1 clone 1254 = system: OR10P1 clone 1254
# OR10Q1 clone 1202 = system: OR10Q1 clone 1202
# [3] = system: OR10R2 A191T/E216G/L239F clone 1304
Structure (SMILES),odorant receptor activation (OR10C1 clone 1065),odorant receptor activation (OR10G3 S73G clone 1272),odorant receptor activation [1],odorant receptor activation (OR10G6 clone 1108),odorant receptor activation (OR10G7 clone 1589),odorant receptor activation (OR10G8 clone 1396),odorant receptor activation [2],odorant receptor activation (OR10H1 clone 1291),odorant receptor activation (OR10H2 L40Q clone 1461),odorant receptor activation (OR10H3 clone 1525),odorant receptor activation (OR10H5 A224D clone 1294),odorant receptor activation (OR10J1 clone 1711),odorant receptor activation (OR10J3 clone 1458),odorant receptor activation (OR10J5 R233W clone 1410),odorant receptor activation (OR10J5 clone 1037),odorant receptor activation (OR10K1 clone 1024),odorant receptor activation (OR10K2 clone 1040),odorant receptor activation (OR10P1 clone 1254),odorant receptor activation (OR10Q1 clone 1202),odorant receptor activation [3]
CCCCCCCCCCC=O [undecanal],0.778,0.982,1.26,0.937,1.23,0.986,0.963,0.963,1.08,0.961,1.05,0.988,0.893,1.19,1.19,1.04,1.11,1.07,0.955,0.954
O=CCc1ccccc1 [phenyl acetaldehyde],0.836,1.3,1.25,1.02,1.55,1.78,0.854,1.13,1.02,1.07,1.49,0.781,1.09,1.65,1.05,0.932,1.39,1.3,0.817,0.895
CC1=NC(C)SC1C (stereo not given),0.679,1.95,,1.94,,0.986,0.817,1.37,1.21 and 1,1.05 and 0.982,2.41,,,0.931,1.19,0.799,1.34,2.44,1.14,0.759
CCCCO [1-butanol],2.77,1.22,0.905,34.3,0.785,0.847,1.01,0.884,1.37,1.18,0.527,0.79,0.903,1.11,3.21,3.64,2.53,0.892,1.08,0.961
C=CCc1ccc(OC)c(OC)c1 [eugenol methyl ether],1.69,1.55,1.52,1.75,7.23,1.44,1.36,1.5,1.66,1.28,1.53,0.706,1.04,1.51,1.56,1.54,1.43,1.44,1.69,1.61
C=CCc1ccc(OC(C)=O)c(OC)c1 [eugenol acetate],1.68,1.96,1.32,1.95,1.22,1.71,1.68,1.42,1.8,1.63,1.58,2.29,1.73,1.69,1.67,1.87,1.63,1.74,2.23,1.64
"CC1CCC(C(C)C)C(O)C1 (single isomer, unassigned; (+)) [(+)-menthol]",2.95,0.929,0.942,31.4,0.708,0.84,1.29,0.837,1.07,1.23,0.564,0.666,0.971,1.07,3.08,3.67,2.71,0.834,1.12,0.844
CCCC(=O)O [butyric acid],1.09,1.03,1.54,1.35,0.367,0.364,1.09,1.13,1.26,1,0.871,0.856,1.43,0.21,1.43,1.28,1.15,0.799,0.91,0.853
C=C(C)C1CC=CCC1 (stereo not given) [r-limonene],0.923 and 1.04,0.814 and 0.448,1.08,1.06 and 2.51,1.26,1.28 and 0.85,0.901 and 0.46,1.1 and 0.379,0.877 and 0.706 and 0.926,1 and 1.01 and 0.726,,0.772,0.997,1.52 and 0.893,1.17,0.804 and 1.17,1.12 and 2.48,1.05 and 0.431,0.83 and 0.358,0.871 and 0.384
"CC1CCC(C(C)C)C(O)C1 (single isomer, unassigned; (-)) [(-)-menthol]",3.71,0.667,0.997,31.9,0.934,0.823,1.07,0.653,2.49,4.49,0.592,0.708,0.727,1.57,3.95,4.59,2.45,0.841,1.32,0.751
CC(=O)OC(C)(C)C1CC=C(C)CC1 (stereo not given) [terpinyl acetate],1.2,0.883,0.896,1.17,1.42,1.06,1.29,0.776,0.925,1.14,0.807,1.01,0.942,1.1,1.31,1.09,1.58,0.965,1.1,0.772
CC1COCc2cc3c(cc21)C(C)(C)C(C)C3(C)C (stereo not given) [galaxolide],10.2,,0.581 and 1.55,3.79,1.99 and 2.06,2.34,4.1,,5.92 and 4.23,,,1.67 and 0.923,1.05 and 1.12,2.9,4.59,7.41,3.37,,4.08,
C=CCSCC=C [diallyl sulfide],1.2,1.06,1.22,0.943,0.573,1.21,0.987,0.772,1.46,1.44,1.11,0.6,1.02,1.02,0.832,1.31,1.03,0.938,0.942,0.978
CC(C)(C)c1ccc(CCC=O)cc1 [bourgeonal],0.901,0.783,,0.872,,0.283,0.85,1.05,1.2,0.7,0.769,,,0.167,1.65,1.21,0.763,0.65,0.865,0.781

# — the odorant receptor screen of Mainland et al. (2015)
